Here are results for one molecule from US20060251650A1 (CHILDREN S MEDICAL CENTER, published 2006).

Protein sequences, listed by entry. Tags and fused reporters are not part of them. Lines headed by an entry give the natural chain unless they say otherwise; changes in a name come on top.
UniProt O14786: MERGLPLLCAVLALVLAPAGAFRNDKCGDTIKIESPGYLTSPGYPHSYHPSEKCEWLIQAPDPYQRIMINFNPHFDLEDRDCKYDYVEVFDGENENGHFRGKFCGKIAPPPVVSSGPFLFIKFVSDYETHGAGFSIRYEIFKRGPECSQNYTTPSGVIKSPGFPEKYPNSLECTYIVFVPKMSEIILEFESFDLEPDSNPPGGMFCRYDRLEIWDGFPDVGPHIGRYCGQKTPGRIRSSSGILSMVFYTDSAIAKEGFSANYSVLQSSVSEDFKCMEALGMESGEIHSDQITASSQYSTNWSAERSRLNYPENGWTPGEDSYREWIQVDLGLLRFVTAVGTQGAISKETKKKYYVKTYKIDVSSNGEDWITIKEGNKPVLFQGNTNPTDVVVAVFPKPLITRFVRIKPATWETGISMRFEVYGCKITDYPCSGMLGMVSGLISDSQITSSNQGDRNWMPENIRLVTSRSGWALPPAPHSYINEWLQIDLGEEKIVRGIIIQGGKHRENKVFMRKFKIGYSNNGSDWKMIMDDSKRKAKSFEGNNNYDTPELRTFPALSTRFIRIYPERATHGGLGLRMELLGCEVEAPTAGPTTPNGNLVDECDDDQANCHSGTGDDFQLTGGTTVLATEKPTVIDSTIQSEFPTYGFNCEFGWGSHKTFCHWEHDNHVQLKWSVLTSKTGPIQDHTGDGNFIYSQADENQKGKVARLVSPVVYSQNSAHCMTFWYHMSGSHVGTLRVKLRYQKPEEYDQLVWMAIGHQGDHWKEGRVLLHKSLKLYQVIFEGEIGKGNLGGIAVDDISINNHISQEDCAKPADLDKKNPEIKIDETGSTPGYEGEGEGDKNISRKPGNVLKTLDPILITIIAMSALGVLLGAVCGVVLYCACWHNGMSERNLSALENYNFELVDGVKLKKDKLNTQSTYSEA

In assay [1] the target is T1, Human VEGF165R/NP-1 (neuropilin-1) (human, UniProt O14786 22-923). Nature of the assay: 125I-collapsin binding to PAE transfectants.
Assay [2] concerns the target T1, Human VEGF165R/NP-1 (neuropilin-1). The assay can be described thus: 125I-collapsin-1 binding to PAE/NP-1 and PAE/NP-1/KDR cells.

No constants are given. Whether binding was seen depends on the method and setting. Some entries that bind do so weakly or less than the wild type.

B1: Recombinant chick collapsin-1 (semaphorin III) (ligand, UniProt Q90607 23-772, looked up)
chain: QHVKNNVPRLKLSYKEMLESNNIVNFNGLANSSSYHTFLLDEERSRLYVGAKDHIFSFNLVNIKEYQKIVWPVSHSRRDECKWAGKDILRECANFIKVLKTYNQTHLYACGTGAFHPMCTYIEVGSHPEDNIFRMEDSHFENGRGKSPYDPKLLTASLLVDGELYSGTAADFMGRDFAIFRTLGHHHPIRTEQHDSRWLNDPRFISAHLIPESDNPEDDKIYFFFRENAIDGEHTGKATHARIGQICKNDFGGHRSLVNKWTTFLKARLICSVPGPNGIDTHFDELQDVFLMNSKDPKNPIVYGVFTTSSNIFKGSAVCMYSMTDVRRVFLGPYAHRDGPNYQWVPYQGRVPYPRPGTCPSKTFGGFDSTKDLPDEVITFARSHPAMYNPVFPINSRPIMIKTDVDYQFTQIVVDRVDAEDGQYDVMFIGTDIGTVLKVVSIPKETWHELEEVLLEEMTVFREPTVISAMKISTKQQQLYIGSATGVSQLPLHRCDVYGKACAECCLARDPYCAWDGSSCSRYFPTAKRRTRRQDIRNGDPLTHCSDLQHHDNPSGQTLEEKIIYGVENSSTFLECSPKSQRAIVYWQFQKQNDDHKVEIKVDDRMIRTEQGLLLRSLQRRDSGIYFCHAVEHGFIQTLLKVTLEVIDTDHLEELLHKEEDADASKTKDATNSMTPSQKIWYRDFMQLINHPNLNTMDEFCEQVWKRDRKQRRQRPANAQVNTNKWKHLQENKKGRNRRTHEFERAPRSV
modifications: 125I-labelled in the binding studies
As for B1, the binding result in assay [1] and in assay [2] was “binds” throughout.
